PubChem BioAssay AID686938, Drosophila RNAi Screening Center – 2013
In all, the deposit lists about 23,000 reagents; below is a random part of those that have a named target and a result. Over the whole deposit, 75 (0.33%) got an active call. 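Raw plate signals without normalisation; calls rest on plate z-scores that were not deposited; ratio present for only 364 wells.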 A number with no mark means an inactive call. Names joined by + are all predicted targets of the reagent. The record does not give: the dose of the treatment.

- Aim: 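Knock-downs reducing store-operated calcium influx in Drosophila cells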 (primary screen)
- System: Drosophila S2R+ cells
- Reagent: long dsRNA against Drosophila genes, about 0.25 µg dsRNA per well, roughly 10,000 cells
- Duration: 5 days of knock-down before the calcium assay
- Conditions: thapsigargin (SERCA pump blocker) to empty calcium stores; entry signal taken 4 min after adding it
- Measurement: 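Duplicate raw fluo-4 intensities per well from a plate reader, at rest and four minutes after thapsigargin emptied calcium stores; entry-to-rest ratio filled for only some wells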
- Direction: calcium entry signal: higher = stronger calcium signal after store depletion; resting calcium signal: higher = higher resting calcium signal
- Units: calcium entry signal in fluorescence units; resting calcium signal in fluorescence units
- Active means: 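Called when the plate z-score of the entry-to-rest ratio, mean of duplicates, falls below −3; wells with low overall dye signal (Fmax z below −2) or more than five off-targets excluded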
- Meaning of the calls: active = strongly reduced calcium entry; inactive = no strong reduction

Silencing of SelT (Selenoprotein T) [DRSC02732] came out at: calcium entry signal, replicate 1 = 3.85e7; resting calcium signal, replicate 1 = 2.03e7.
ATPsynD (ATP synthase, subunit D) [DRSC14093] scored calcium entry signal, replicate 1 = 2.77e7; calcium entry signal, replicate 2 = 3.58e7; resting calcium signal, replicate 1 = 4.69e7; resting calcium signal, replicate 2 = 1.74e7.
For Jhedup (Juvenile hormone esterase duplication) [DRSC07173] the deposit lists calcium entry signal, replicate 1 = 4.40e7; calcium entry signal, replicate 2 = 5.00e7; resting calcium signal, replicate 1 = 1.89e7; resting calcium signal, replicate 2 = 2.35e7.
Against Pcif1 (Phosphorylated CTD-interacting factor 1) [DRSC11655], the values are calcium entry signal, replicate 1 = 3.32e7; calcium entry signal, replicate 2 = 3.86e7; resting calcium signal, replicate 1 = 1.60e7; resting calcium signal, replicate 2 = 2.72e7.
CG14860 [DRSC14983] gave calcium entry signal, replicate 1 = 3.80e7; calcium entry signal, replicate 2 = 4.58e7; resting calcium signal, replicate 1 = 1.82e7; resting calcium signal, replicate 2 = 6.00e7.
Cyp309a1 (Cytochrome P450 309a1) [DRSC00747] scored calcium entry signal, replicate 1 = 3.70e7; calcium entry signal, replicate 2 = 3.36e7; resting calcium signal, replicate 1 = 1.69e7; resting calcium signal, replicate 2 = 1.48e7.
After knock-down of CG9588 [DRSC16504], the screen gave calcium entry signal, replicate 1 = 3.25e7; calcium entry signal, replicate 2 = 5.35e7; resting calcium signal, replicate 1 = 1.65e7; resting calcium signal, replicate 2 = 6.36e7.
After knock-down of CheB38a (Chemosensory protein B 38a) [DRSC03205], the screen gave calcium entry signal, replicate 1 = 4.81e7; calcium entry signal, replicate 2 = 4.72e7; resting calcium signal, replicate 1 = 2.11e7; resting calcium signal, replicate 2 = 2.41e7.
For CG6805 [DRSC07011], the entry reads calcium entry signal, replicate 1 = 4.54e7; calcium entry signal, replicate 2 = 4.30e7; resting calcium signal, replicate 1 = 2.07e7; resting calcium signal, replicate 2 = 2.02e7.
Against CG11593 [DRSC08206] the deposit lists calcium entry signal, replicate 1 = 4.12e7; calcium entry signal, replicate 2 = 4.46e7; resting calcium signal, replicate 1 = 2.12e7; resting calcium signal, replicate 2 = 2.17e7.
With knock-down of CG9313 [DRSC04540], the screen gave calcium entry signal, replicate 1 = 4.20e7; resting calcium signal, replicate 1 = 1.99e7.
iotaTry (iotaTrypsin) [DRSC07634] showed calcium entry signal, replicate 1 = 3.17e7; calcium entry signal, replicate 2 = 3.33e7; resting calcium signal, replicate 1 = 1.63e7; resting calcium signal, replicate 2 = 1.61e7.
Dys (Dystrophin) [DRSC13360] showed calcium entry signal, replicate 1 = 3.62e7; calcium entry signal, replicate 2 = 2.88e7; resting calcium signal, replicate 1 = 1.60e7; resting calcium signal, replicate 2 = 1.28e7.
Knock-down of Dys (Dystrophin) [DRSC13364] gave: calcium entry signal, replicate 1 = 4.63e7; calcium entry signal, replicate 2 = 3.30e7; resting calcium signal, replicate 1 = 2.62e7; resting calcium signal, replicate 2 = 1.57e7.
Dys (Dystrophin) [DRSC15260] scored calcium entry signal, replicate 1 = 4.15e7; calcium entry signal, replicate 2 = 3.92e7; resting calcium signal, replicate 1 = 5.98e7; resting calcium signal, replicate 2 = 1.76e7.
Dys (Dystrophin) [DRSC16218] showed calcium entry signal, replicate 1 = 4.30e7; calcium entry signal, replicate 2 = 5.51e7; resting calcium signal, replicate 1 = 6.18e7; resting calcium signal, replicate 2 = 2.40e7.
With knock-down of Dys (Dystrophin) [DRSC16219] the results were calcium entry signal, replicate 1 = 3.89e7; calcium entry signal, replicate 2 = 4.95e7; resting calcium signal, replicate 1 = 5.61e7; resting calcium signal, replicate 2 = 2.15e7.
Against Dys (Dystrophin) [DRSC16220] the deposit lists calcium entry signal, replicate 1 = 4.05e7; calcium entry signal, replicate 2 = 4.97e7; resting calcium signal, replicate 1 = 4.42e7; resting calcium signal, replicate 2 = 2.18e7.
Knock-down of Dys (Dystrophin) [DRSC16935] resulted in: calcium entry signal, replicate 1 = 4.05e7; calcium entry signal, replicate 2 = 5.08e7; resting calcium signal, replicate 1 = 6.07e7; resting calcium signal, replicate 2 = 2.23e7.
After knock-down of CG33752 [DRSC05351], the record shows calcium entry signal, replicate 1 = 3.84e7; calcium entry signal, replicate 2 = 4.36e7; resting calcium signal, replicate 1 = 1.80e7; resting calcium signal, replicate 2 = 1.84e7.
Depletion of CG17159 + CG17162 [DRSC20899] came out at: calcium entry signal, replicate 1 = 3.79e7; calcium entry signal, replicate 2 = 4.01e7; resting calcium signal, replicate 1 = 2.22e7; resting calcium signal, replicate 2 = 2.01e7.
With knock-down of CG17159 + CG17162 [DRSC20900] the results were calcium entry signal, replicate 1 = 3.43e7; calcium entry signal, replicate 2 = 4.52e7; resting calcium signal, replicate 1 = 1.88e7; resting calcium signal, replicate 2 = 1.94e7.

2 entries from above in another layout:
target gene | amplicon | calcium entry signal, replicate 1 | calcium entry signal, replicate 2 | resting calcium signal, replicate 1 | resting calcium signal, replicate 2
Dys (Dystrophin) | DRSC16220 | 4.05e7 | 4.97e7 | 4.42e7 | 2.18e7
Dys (Dystrophin) | DRSC16935 | 4.05e7 | 5.08e7 | 6.07e7 | 2.23e7
